Laboratory results as given in PubChem BioAssay AID540276 (National Center for Advancing Translational Sciences (NCATS), 2011).
Screen size: about 300,000 compounds; about 5,400 (1.8%) were called active. The shares of active, inactive and inconclusive entries below differ from those in the screen. Calls come from the whole dose curve; tested in HEK293 cells. Potencies beside an inconclusive call are fits to weak or partial responses and may not hold up.

Assay: qHTS for inhibitors of binding or entry into cells for Marburg Virus
Conditions: Marburg virus pseudotyped entry inhibition, cell reporter; series mostly up to 37.8 µM
Potency is the fitted concentration of half-maximal effect.

| SMILES | Potency |
| --- | --- |
| O=C(Nc1ccc(Cl)c(C(F)(F)F)c1)C(Cc1ccccc1)NS(=O)(=O)c1cccc2nsnc12 (stereo unspecified) | inactive |
| Cc1ccc2[nH]c(=O)c(CN(C(=O)c3cccc([N+](=O)[O-])c3)C(C)(C)C)cc2c1 | inconclusive: 35.5 µM [inhibitor, single point] |
| O=C(COc1ccc(Cl)cc1)NCc1ccc(F)cc1 | inconclusive: 1.26 µM [inhibitor, single point] |
| CCOc1ccc(C(=O)NC(=S)Nc2cccc(S(=O)(=O)NC3=NCCC3)c2)cc1 | inconclusive: 0.562 µM [inhibitor, full curve, poor fit] |
| O=C(Nc1ccc(NC(=O)c2ccccc2F)cn1)c1ccco1 | active: 3.98 µM |
| COC(=O)c1c(NC(=O)C2(C)Cc3ccccc3C(=O)O2)sc2c1CCCC2 (stereo unspecified) | inconclusive: 29.1 µM [inhibitor, single point] |
| O=C(Nc1cccc(S(=O)(=O)N2CCCC2)c1)c1ccc(Cl)nc1 | inconclusive: 10 µM [inhibitor, partial curve, poor fit] |
| O=c1[nH]c(N2CCOCC2)nc2ncn(Cc3ccccc3)c12 | inactive |
| CC(OC(=O)c1cccnc1Cl)C(=O)Nc1ccc(S(N)(=O)=O)cc1 (stereo unspecified) | inconclusive: 3.55 µM [inhibitor, single point] |
| Cc1ccc(C(=O)Nc2ccc(S(=O)(=O)NCc3ccco3)cc2)cc1 | inactive |
| COCCn1c(N)c(C(=O)NCc2cccs2)c2nc3ccccc3nc21 | inconclusive: 23.1 µM [inhibitor, single point] |
| Cc1ccc(S(=O)(=O)C(NC(=O)c2ccccc2)=C(Cl)Cl)cc1 | inconclusive: 22.4 µM [inhibitor, single point] |
| Cc1ccc(NC(=S)N(CCCN(C)C)Cc2cc3cc4c(cc3[nH]c2=O)OCO4)cc1 | inconclusive: 1.78 µM [activator, partial curve, poor fit] |
| Cc1ccc(/C=N/NC(=O)c2csc3c2CCCC3)cc1 | inconclusive: 1 µM [inhibitor, full curve, poor fit] |
| CCSC1=C(C#N)C(c2ccc(Cl)cc2)C2=C(CCCC2=O)N1 (stereo unspecified) | inconclusive: 1.64 µM [inhibitor, partial curve, poor fit] |
| CCOC(=O)C1CCCN(C(=O)c2ccc3c(c2)NC(=O)C(N2CCOCC2)S3)C1 (stereo unspecified) | inconclusive: 11.2 µM [inhibitor, partial curve, poor fit] |
| CC(C)COc1ccc(CNC(=S)N/N=C/c2ccc([N+](=O)[O-])cc2)cc1 | inconclusive: 3.98 µM [activator, single point] |
| Fc1ccccc1-c1nc(-c2ccc(Cl)cc2)no1 | inconclusive: 6.51 µM [activator, single point] |
| Cc1ccc(C2/C(=C(\O)c3c(C)nc4ccccn34)C(=O)C(=O)N2CCN(C)C)o1 (stereo unspecified) | inconclusive: 0.631 µM [activator, partial curve, poor fit] |
| Cc1ccc2c(C(=O)N3CCN(c4ccccc4)CC3)cc(-c3cccnc3)nc2c1C | inconclusive: 17.8 µM [inhibitor, single point] |
| COc1cccc(C(C(=O)Nc2ccc(F)cc2)N(C(=O)Cn2nnc3ccccc32)C2CC2)c1 (stereo unspecified) | inactive |
| COc1ccc(Nc2cc(C(=O)NCCCN(C)C3CCCCC3)c3ccccc3n2)c(OC)c1 | inconclusive: 28.2 µM [inhibitor, single point] |

Quoted at random: 5 compounds from above

| SMILES | Potency |
| --- | --- |
| Cc1ccc(C2/C(=C(\O)c3c(C)nc4ccccn34)C(=O)C(=O)N2CCN(C)C)o1 (stereo unspecified) | inconclusive: 0.631 µM [activator, partial curve, poor fit] |
| CC(OC(=O)c1cccnc1Cl)C(=O)Nc1ccc(S(N)(=O)=O)cc1 (stereo unspecified) | inconclusive: 3.55 µM [inhibitor, single point] |
| COCCn1c(N)c(C(=O)NCc2cccs2)c2nc3ccccc3nc21 | inconclusive: 23.1 µM [inhibitor, single point] |
| Cc1ccc(S(=O)(=O)C(NC(=O)c2ccccc2)=C(Cl)Cl)cc1 | inconclusive: 22.4 µM [inhibitor, single point] |
| O=C(Nc1cccc(S(=O)(=O)N2CCCC2)c1)c1ccc(Cl)nc1 | inconclusive: 10 µM [inhibitor, partial curve, poor fit] |

Next part

| SMILES | Potency |
| --- | --- |
| CC(CCc1ccco1)N(C)S(=O)(=O)c1csc(C(N)=O)c1 (stereo unspecified) | inactive |
| CCCCOc1cc(C)nc(NCc2ccccc2)n1 | inconclusive: 12.6 µM [inhibitor, partial curve, poor fit] |
| O=C(Nc1ccncc1NC(=O)c1cccc([N+](=O)[O-])c1)c1cccc([N+](=O)[O-])c1 | inactive |
| CCCCC(=O)NC(Nc1nc(C2CC2)cs1)(C(=O)OCC)C(F)(F)F (stereo unspecified) | inconclusive: 11.2 µM [inhibitor, partial curve] |
| COc1ccc([N+](=O)[O-])cc1N(CC(=O)N1CCCC1)S(C)(=O)=O | inactive |
| Cn1c(=O)c2ccccc2n(CC(=O)Nc2ccc3c(c2)OCCO3)c1=O | inconclusive: 6.31 µM [inhibitor, full curve, poor fit] |
| CCCN(CCC)CCCNC(=O)c1cn(C)c2ccc(S(=O)(=O)N3CCOCC3)cc2c1=O | inconclusive: 12.6 µM [activator, partial curve] |
| CCCn1c(SCC(=O)Nc2ccc3c(c2)OCCO3)nnc1-c1ccco1 | inconclusive: 0.891 µM [inhibitor, full curve, poor fit] |
| C=CCn1c(C)cc(C(=O)COC(=O)/C=C/c2c(C)nn(C3CCS(=O)(=O)C3)c2Cl)c1C (stereo unspecified) | inconclusive: 0.355 µM [inhibitor, partial curve, poor fit] |
| CC(=O)c1cccc(NC(=O)N2C3CCCC2CC(NC(=O)C2CC2)C3)c1 (stereo unspecified) | inconclusive: 0.891 µM [activator, full curve, poor fit] |
| CN(C)S(=O)(=O)c1cccc(C(=O)N=C2N=C3C=CC(Cl)=CN3Cc3ccccc32)c1 | inactive |
| O=C(/C=C/c1ccco1)NC(=S)Nc1nc(-c2ccc3ccccc3c2)cs1 | inconclusive: 3.16 µM [inhibitor, single point] |
| Cc1ccc(S(=O)(=O)N/N=C\c2cc3c(cc2Br)OCO3)cc1 | inconclusive: 1.12 µM [inhibitor, full curve] |
| Nc1nnc(N2CCCCCC2)s1 | inactive |
| COc1cc(/C=C/C(=O)OCC(=O)N2CCC(Cc3ccccc3)CC2)ccc1O | inactive |
| O=C(/C=C/c1cccc([N+](=O)[O-])c1)N1CCN(c2ccc(F)cc2)CC1 | inconclusive: 29.1 µM [activator, partial curve, poor fit] |
| CCOC(=O)C1=C(C)Nc2sc(C(=O)c3ccc(C)cc3)c(N)c2C1c1ccc(C(=O)OC)cc1 (stereo unspecified) | inconclusive: 8.91 µM [inhibitor, partial curve, poor fit] |
| CCOc1ncccc1C(=O)N1CCN(C(=O)c2ccccc2)CC1 | inconclusive: 6.31 µM [activator, single point] |
| Cc1ccc(O)c(-c2cc(C(=O)Nc3ccc(S(=O)(=O)Nc4nccc(C)n4)cc3)[nH]n2)c1 | inconclusive: 35.5 µM [inhibitor, single point] |
| Cc1ccc(-c2nc(C(=O)O)cs2)cc1 | inactive |
| CC(CCc1ccccc1)NC(=O)COc1ccc(S(=O)(=O)N2CCOCC2)cc1[N+](=O)[O-] (stereo unspecified) | inconclusive: 35.5 µM [inhibitor, single point] |
| COc1ccc(Nc2ccc(S(=O)(=O)N3CCCCC3)cc2[N+](=O)[O-])cc1OC | inconclusive: 10 µM [inhibitor, partial curve, poor fit] |

| SMILES | Potency |
| --- | --- |
| Cc1ccc(-c2csc(NC(=O)c3ccc4c(=O)n5c(nc4c3)CCCCC5)n2)cc1 | inconclusive: 35.5 µM [inhibitor, single point] |
| COc1ccc(C(=O)NC(C)c2ccccc2)cc1Br (stereo unspecified) | inactive |
| O=C1C=C(NCCc2cc(Br)c(O)c(Br)c2)C(=O)c2ncccc21 | inconclusive: 5.62 µM [inhibitor, partial curve, poor fit] |
| CCS(=O)(=O)c1nc(NC(C)=O)n[nH]1 | inconclusive: 8.91 µM [activator, partial curve, poor fit] |
| Cc1ccc(NC(=O)C(c2ccccc2)N(C)C)cc1Cl (stereo unspecified) | active: 11.2 µM |
| CN(C)C(CNC(=O)C1CCN(C(=O)/C=C/c2ccccc2)CC1)c1ccccc1 (stereo unspecified) | inconclusive: 0.146 µM [inhibitor, full curve, poor fit] |
| O=C(COc1ccc2ccccc2c1Br)N1CCN(c2ccccn2)CC1 | inconclusive: 29.1 µM [inhibitor, single point] |
| Cc1c(OCc2ccccc2)c(=O)ccn1Cc1ccccc1 | inactive |
| CCCC(C)NC(=O)CSc1nc2ccc(C)cc2[nH]1 (stereo unspecified) | inactive |
| c1ccc(N2CCCCC2)c(Nc2nc3ccccc3n3cnnc23)c1 | inconclusive: 14.6 µM [inhibitor, partial curve] |
| CCc1nnc(N/N=C/c2cc(C)c(C)cc2C)n1N | inconclusive: 35.5 µM [inhibitor, single point] |
| CN(C)CCCNS(=O)(=O)c1ccc(N2CCN(Cc3ccc4c(c3)OCO4)CC2)c([N+](=O)[O-])c1 | inconclusive: 15.8 µM [inhibitor, partial curve, poor fit] |
| CCn1cc(C(=O)O)c(=O)c2cc(F)c(N3CCN(C(=S)NC(=O)c4cccc(C)c4)CC3)cc21 | inactive |
| Cc1ccc(C)n1-c1ccc(N(C)C)cc1 | inactive |
| C[C@H]1[C@H](O)[C@@H](N=[N+]=[N-])CCO[C@H]1c1ccccc1 | inactive |
| COc1ccc2cnn(CCOc3ccccc3)c(=O)c2c1OC | inconclusive: 10 µM [inhibitor, partial curve, poor fit] |
| Cc1ccc(-n2cnc3c(=O)[nH]cnc32)cc1 | inconclusive: 22.4 µM [activator, single point] |
| CCCC1=Nc2cc(C(=O)NCCCOCC)ccc2Sc2ccccc21 | active: 1.58 µM |
| Cc1ccccc1C(=O)n1nc(-c2cccnc2)nc1NCc1ccc(F)cc1 | inconclusive: 5.01 µM [activator, single point] |
| CCN(CCCNC(=O)Cn1ncc2c3ccccc3n(C)c2c1=O)c1cccc(C)c1 | inactive |
| Cc1cc(C(=O)CSc2n[nH]c(N)n2)c(C)n1-c1ccc(F)cc1 | inconclusive: 29.1 µM [inhibitor, single point] |
| O=C(c1nn(Cc2ccccc2)c(=O)c2ccccc12)N1CCN(C/C=C/c2ccccc2)CC1 | inconclusive: 35.5 µM [inhibitor, single point] |
